Reference: patent US20070054916A1, “Aryl nitrogen-containing bicyclic compounds and methods of use” (Amgen Inc., priority 2004, published 2007)
Some of these results come from one statement about several compounds together. At least one structure is not confirmed: it was looked up by name or label, or the drawing left a doubt.

Test system: production of TNF by monocytes activated with bacterial lipopolysaccharide (LPS)
Assay: Lipopolysaccharide-activated monocyte TNF production assay
Assay type: cell-based, human
Conditions: read-out: IC50 values in the monocyte assay (LPS induced TNF release)
Method: Lipopolysaccharide-Activated Monocyte TNF Production Assay
Test compounds were evaluated in vitro for the ability to inhibit the production of TNF by monocytes activated with bacterial lipopolysaccharide (LPS). Fresh residual source leukocytes (a byproduct of plateletpheresis) were obtained from a local blood bank, and peripheral blood mononuclear cells (PBMCs) were isolated by density gradient centrifugation on Ficol-Paque Plus (Pharmacia). PBMCs were suspended at 2×10^6/ml in DMEM supplemented to contain 2% FCS, 10 mM, 0.3 mg/ml […], 100 U/ml penicillin G and […] streptomycin sulfate (complete media). Cells were plated into Falcon flat bottom, 96 well culture plates (200 μl/well) and cultured overnight at 37° C. and 6% CO2. Non-adherent cells were removed by washing with 200 μl/well of fresh medium. Wells containing adherent cells (˜70% monocytes) were replenished with 100 μl of fresh medium.
Preparation of Test Compound Stock Solutions […]
One hundred microliters of each test compound dilution were added to microtiter wells containing adherent monocytes and 100 μl complete medium. […] Culture supernatants were then removed and TNF presence in the supernatants was quantified using an ELISA. […]
Standard curve data were fit to a second order polynomial and unknown TNF-α concentrations determined from their OD by solving this equation for concentration. […]

For COc1cc(C(=O)Nc2ccc(C)c(-c3ccc4nc(N)ncc4c3)c2)cc(OC)c1OC [Example 215, N-(3-(2-amino-6-quinazolinyl)-4-methyiphenyl)-3,4,5-tris(methyloxy)benzamide], which IC50 is on record?
The IC50 was ≤ 25 µM.

How did the IC50 turn out when Cc1c(NC(=O)c2cc(F)cc(C(F)(F)F)c2)cccc1-c1ccc2nc(N)ncc2c1 [Example 218, N-(3-(2-amino-6-quinazolinyl)-2-methylphenyl)-3-fluoro-5-(trifluoromethyl) benzamide] was run?
Its IC50 is ≤ 25 µM.
